Data as given in paper doi:10.1101/2022.11.08.515568.

Target: T1, FliW-T25 (Clostridioides difficile) (UniProt Q18CX4)
T1 sequence: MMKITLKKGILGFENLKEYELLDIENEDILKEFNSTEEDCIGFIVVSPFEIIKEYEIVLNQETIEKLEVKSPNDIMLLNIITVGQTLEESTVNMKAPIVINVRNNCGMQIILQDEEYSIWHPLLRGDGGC
Assay: two-hybrid

Substance	binding
FliC-T18 (Clostridioides difficile)	binds
TcdR-T18 (Clostridioides difficile)	binds

Results are given in words; binding and its absence hold for the method and conditions named. Binding calls can cover weak binding; strength is not graded here.
